This passage reports survivor count results from PubChem BioAssay AID256 (DTP/NCI, 2004).

In this assay the test system is CD2F1 mice, L1210 leukemia ip, survival T/C. Description: NCI In Vivo Anticancer Drug Screen. Data for tumor model L1210 Leukemia (intraperitoneal) in CD2F1 (CDF1) mice. To be noted: T/C endpoint: median survival time, schedule: Q01DX009 (ip), vehicle: Klucel (hydroxypropylcellulose) (HPC), higher T/C = longer survival. The gist of the method:
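Tumor-bearing mice (transplanted tumor) were split into treated and vehicle control groups, and the measured endpoint of each treated group was divided by that of its vehicle controls.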

Structures are written as SMILES. The list is a part of this screen's results and no random one: it is rich in T/C values a quarter to a half above the control, in often repeated tests (any T/C) and in doses without a T/C. Other doses and runs of a compound stand elsewhere. T/C: endpoint of the treated group in % of that of the vehicle group. Some entries give survivors of the animals treated and no T/C: the source holds a T/C of zero for them, seemingly a mark for toxic or unscored doses. Survivors were counted at the toxicity check, usually on the fifth day, unless a day is given; later deaths do not show. Schedule codes are those of the source, taken here to give the interval after Q, in days (D) or hours (H), and the number of doses after X.

With `Cc1cc(Nc2ccc3c(c2)OCO3)c2cc3c(cc2n1)OCO3`, the survivor count was 0 of 6 (dose: 200.0 mg/kg/injection) and 0 of 6 (dose: 400.0 mg/kg/injection).
